Source: PubChem BioAssay AID1671190 (National Center for Advancing Translational Sciences (NCATS), 2021)
“And” between values parts separate entries of the source, which are not always exact repeats. Equal entries are not always repeated. Among all 580,000 compounds or so, about 6,100 (1.1%) were called active. Inconclusive means that the source gave no clear call. Such entries were picked first, then a sample of the others. Calls come from the whole dose curve; as a rule, active = well fitted inhibition curve with a large enough effect; inconclusive = small, poorly fitted or top-dose-only effect, or another doubt; inactive = no such curve, though single readings can be large or run the other way. Potencies beside an inconclusive call are fits to weak or partial responses and may not hold up. More than one record can exist for a structure, and the calls need not agree.
Potency is the fitted concentration of half-maximal effect.

Chains of the proteins cited; added tags and fusions are not shown. Lines headed by an entry give the natural chain unless they say otherwise; changes in a name come on top.
UniProt P18054: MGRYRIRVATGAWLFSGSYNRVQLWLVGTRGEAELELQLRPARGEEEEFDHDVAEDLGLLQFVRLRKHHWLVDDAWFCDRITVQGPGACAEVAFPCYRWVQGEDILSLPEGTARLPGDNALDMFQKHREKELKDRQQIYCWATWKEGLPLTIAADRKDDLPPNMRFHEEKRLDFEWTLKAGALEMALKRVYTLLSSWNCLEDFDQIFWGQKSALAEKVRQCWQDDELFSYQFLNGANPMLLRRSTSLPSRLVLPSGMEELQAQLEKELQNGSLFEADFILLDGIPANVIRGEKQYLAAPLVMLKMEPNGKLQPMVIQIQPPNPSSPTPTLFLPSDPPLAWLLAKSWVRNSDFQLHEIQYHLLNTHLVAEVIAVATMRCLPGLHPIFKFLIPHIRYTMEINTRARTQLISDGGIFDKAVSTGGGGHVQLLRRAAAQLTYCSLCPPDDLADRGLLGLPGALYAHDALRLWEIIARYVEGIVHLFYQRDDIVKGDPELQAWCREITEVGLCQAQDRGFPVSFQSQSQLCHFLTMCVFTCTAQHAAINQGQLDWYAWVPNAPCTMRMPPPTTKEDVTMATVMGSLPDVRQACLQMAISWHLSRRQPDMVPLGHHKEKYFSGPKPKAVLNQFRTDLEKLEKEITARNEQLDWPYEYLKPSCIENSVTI

Each molecule was assayed against Polyunsaturated fatty acid lipoxygenase ALOX12 (Homo sapiens) (UniProt P18054) (assay: Primary qHTS assay for inhibitors of human arachidonate 12S-lipoxygenase (ALOX12): Round 2). Conditions: purified 12hLO, xylenol orange hydroperoxide absorbance; series mostly up to 108 µM.
Procedure, shortened: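 Purified human 12hLO (150 nM final) in 25 mM Hepes, 0.01% Triton X-100, pH 7.0 was preincubated 15 min at room temperature with compound. Then 40 uM arachidonic acid was added, 30 min. Hydroperoxide was read by Fe-XO absorbance ratio 573/405 nm.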
For Cn1c(=O)n(C)c2cc([N+](=O)[O-])c(N3CCN(C(=O)c4ccc(F)cc4)CC3)cc21, the Potency was “inactive”. In the case of CCOC(=O)c1ccc(-n2c(N)c(C(=O)NCc3ccco3)sc2=S)cc1, the Potency is reported as inconclusive: 56.2 µM [inhibitor, partial curve, poor fit]. FC(F)(F)c1cccc(-n2c(-c3ccc(Br)cc3)c[n+]3c2CCc2ccccc2-3)c1 was tested, and the Potency was inconclusive: 44.7 µM [inhibitor, partial curve]. With COc1ccccc1C(=O)NC(=S)Nc1ccc(Cc2ccncc2)cc1 the Potency was inconclusive: 39.8 µM [inhibitor, partial curve, poor fit]. In the case of Cc1ccc(NC(=O)c2ccccc2SCC(=O)N2CCCC2)cc1S(=O)(=O)N(C)C, the Potency is reported as inconclusive: 17.8 µM [inhibitor, full curve, poor fit]. With Cc1ccc(S(=O)(=O)N2CCCc3cc(NC(=O)c4ccc(C(C)(C)C)cc4)ccc32)cc1 the Potency was inconclusive: 56.2 µM [inhibitor, partial curve, poor fit]. With N#CCCN(Cc1cccnc1)C(=S)NC(=O)c1ccco1 the Potency was inconclusive: 79.4 µM [inhibitor, single point]. For Cc1cc(C2=NNC(=NCCc3ccccc3)SC2)c(C)n1CC1CCCO1 (stereo not given), the Potency was inconclusive: 158 µM [inhibitor, single point]. With Cc1ccc(CNC(=O)COC(=O)c2ccc3c(c2)NC(=O)CS3)cc1 the Potency was inconclusive: 126 µM [inhibitor, partial curve, poor fit]. CCCCCCCCCc1conc1C(=O)/C=C/c1oc2c(c1C)CCC(C)C2 (stereo not given) was tested, and the Potency was active: 39.8 µM. For COc1cc2nc(N(CCCN(C)C)C(=O)c3ccc(S(=O)(=O)N4CCc5ccccc5C4)cc3)sc2cc1OC, the Potency was inconclusive: 44.7 µM [inhibitor, partial curve, poor fit]. With CCOc1ccc(NC(=S)Nc2cccc3ccccc23)cc1 the Potency was inconclusive: 50.1 µM [inhibitor, partial curve, poor fit]. CCN(CC)c1ccc(NC(=O)c2sc3nc(-c4ccccc4)cn3c2C)cc1 was tested, and the Potency was inconclusive: 56.2 µM [inhibitor, partial curve, poor fit]. For CC(C)(CNC(=O)c1cccc(F)c1)CNC(=O)c1cccc(F)c1, the Potency was inconclusive: 100 µM [inhibitor, single point]. In the case of CCCn1c2ccccc2c2cnn(CC(=O)NCCc3cc(OC)ccc3OC)c(=O)c21, the Potency is reported as inconclusive: 100 µM [inhibitor, partial curve, poor fit]. With COc1ccc(NC(=O)CSc2ccc([N+](=O)[O-])cc2)cc1S(=O)(=O)N1CCOCC1 the Potency was inconclusive: 89.1 µM [inhibitor, single point]. In the case of Cc1nc(-c2ccc(F)cc2)sc1CCNC(=O)C(=O)Nc1ccc2c(c1)OCO2, the Potency is reported as inconclusive: 112 µM [inhibitor, partial curve, poor fit]. With O=C1/C(=C/c2ccc(-c3ccc(F)cc3)o2)Cc2ccccc21 the Potency was active: 17.8 µM. For CC(NC(=O)C(=O)Nc1ccccc1Cl)c1ccccc1 (stereo not given), the Potency was inconclusive: 39.8 µM [inhibitor, partial curve, poor fit]. With CCOC(=O)C1CCN(Cc2ccc(OC)c(OCc3ccccc3)c2)CC1 the Potency was inconclusive: 1.41 µM [inhibitor, full curve]. For Cn1cc(SCC(=O)Nc2nc3ccccc3s2)c2ccccc21, the Potency was inconclusive: 35.5 µM [inhibitor, partial curve, poor fit]. For O=C(NCCc1nc2ccccc2[nH]1)c1cccc(N2CCCN(Cc3ccccc3)C2=O)c1, the Potency was inconclusive: 2.82 µM [inhibitor, full curve, poor fit]. O=C(Nc1ccc(-c2ccco2)cc1)C1CCCN(Cc2ccco2)C1 (stereo not given) was tested, and the Potency was “inactive”. With COC(=O)c1ccc(C2/C(=C(/O)c3ccc4c(c3)CC(C)O4)C(=O)C(=O)N2CCN2CCOCC2)cc1 (stereo not given) the Potency was inconclusive: 44.7 µM [inhibitor, partial curve, poor fit]. O=C(O)C1CCCN(c2cn[nH]c(=O)c2)C1 (stereo not given) was tested, and the Potency was inconclusive: 39.8 µM [inhibitor, single point]. With CCc1ccc2c(CC(=O)Nc3cccc(S(=O)(=O)N4CCOCC4)c3)coc2c1 the Potency was inconclusive: 2.82 µM [inhibitor, full curve, poor fit]. For CC(=O)N1CCN(c2ccc3nnc(-c4cc(C(=O)N(C)C)ccn4)n3n2)CC1, the Potency was inconclusive: 28.2 µM [inhibitor, partial curve]. Cc1c(-c2cccc(Cl)c2)nn2c1NC(=O)CC2C(=O)Nc1ccc2c(c1)OCO2 (stereo not given) was tested, and the Potency was “inactive”. With O=C(CSC1=NS(=O)(=O)c2cc(F)ccc2N1)NCc1ccc(F)cc1 the Potency was inconclusive: 56.2 µM [inhibitor, partial curve, poor fit]. With C/C(=N\Nc1cccc(Cl)c1)c1ccc(-n2ccnc2)cc1 the Potency was inconclusive: 31.6 µM [inhibitor, partial curve, poor fit]. With Cc1ccc(Cl)cc1NC(=O)Cn1cc(S(=O)(=O)Cc2ccccc2Cl)c2ccccc21 the Potency was inconclusive: 50.1 µM [inhibitor, partial curve, poor fit]. With CC(C)Sc1ccc2nn(CC(=O)Nc3ccccc3F)c(=O)n2n1 the Potency was “inactive”. For O=C(Cn1nc(C(=O)O)c2ccccc2c1=O)NCC1CCCO1 (stereo not given), the Potency was “inactive”. For O=C(NC(=S)Nc1ccc(O)cc1)c1cncc(Br)c1, the Potency was inconclusive: 0.199 µM [inhibitor, full curve, poor fit]. C/C(=N\NC(=O)c1cccc(N/N=C(\C)c2ccncc2)c1)c1ccncc1 was tested, and the Potency was inconclusive: 22.4 µM [inhibitor, partial curve, poor fit]. For COCCNCc1ccccc1, the Potency was “inactive”. In the case of Cc1cc(=O)c(C(=O)O)cn1Nc1ccc(F)cc1, the Potency is reported as inconclusive: 6.31 µM [inhibitor, partial curve, poor fit]. For COC(=O)c1c(NC(=O)CCCOc2ccccc2)sc2c1CCC(C)C2 (stereo not given), the Potency was “inactive”. With CC1(C)Oc2ccc(NC(=O)C3COc4ccccc4O3)cc2O1 (stereo not given) the Potency was “inactive”. Cc1ccc(Cl)cc1NC(=O)C1CCCN(S(=O)(=O)c2c(C)noc2/C=C/N(C)C)C1 (stereo not given) was tested, and the Potency was “inactive”. Fc1cccc(CN2CCN(c3ncccn3)CC2)c1 was tested, and the Potency was inconclusive: 0.398 µM [inhibitor, full curve, poor fit]. In the case of N#Cc1ccc(NCCc2coc(-c3ccccc3)n2)nc1, the Potency is reported as “inactive”. In the case of CC(=O)N1CCN(c2oc(-c3cccc(C)c3)nc2S(=O)(=O)c2ccccc2)CC1, the Potency is reported as inconclusive: 31.6 µM [inhibitor, partial curve, poor fit]. In the case of COc1cccc(C(=O)Nc2oc3ccccc3c(=O)c2-c2cccc(OC)c2)c1, the Potency is reported as “inactive”. In the case of N#Cc1cn(CC(=O)Nc2ccc(F)c(Cl)c2)c2ccccc12, the Potency is reported as “inactive”. In the case of O=S(=O)(Nc1ccc(Cl)cc1)c1ccc(N2CCOCC2)c(NC(=S)NC2CC2)c1, the Potency is reported as inconclusive: 44.7 µM [inhibitor, partial curve, poor fit]. For Cc1ccc2nc(C)cc(C(=O)OC(C)C(=O)NCC(C)C)c2c1 (stereo not given), the Potency was “inactive”. In the case of Cc1cccc(S(=O)(=O)Nc2nc3ccccc3nc2Nc2cccc(F)c2)c1, the Potency is reported as inconclusive: 79.4 µM [inhibitor, single point]. Cc1ccsc1C1Nc2ccccc2-c2nc3ccccc3n21 (stereo not given) was tested, and the Potency was “inactive”. In the case of CC(NCC(O)c1ccc([N+](=O)[O-])cc1)C12CC3CC(CC(C3)C1)C2 (stereo not given), the Potency is reported as inconclusive: 50.1 µM [inhibitor, partial curve, poor fit]. With CN(Cc1ccccc1)C(=O)CSc1nc2c(c(C(F)(F)F)n1)CCc1ccccc1-2 the Potency was inconclusive: 44.7 µM [inhibitor, single point]. In the case of C#Cc1cccc(C(=O)NC2CCCN(C3Cc4ccccc4C3)C2)c1 (stereo not given), the Potency is reported as inconclusive: 2.51 µM [inhibitor, full curve]. With Cc1cc(C)c2oc(C(=O)Nc3ncc(Cc4ccccc4)s3)cc(=O)c2c1 the Potency was “inactive”. For COc1ccc(NC(=S)N(Cc2ccc(N(C)C)cc2)Cc2ccco2)cc1, the Potency was “inactive”. For CN(c1ccc(C(=O)O)cc1)S(=O)(=O)c1ccc(Cl)cc1, the Potency was inconclusive: 8.91 µM [inhibitor, full curve, poor fit]. With CCCC1S/C(=N/N=C/c2ccc(C)cc2)N(Cc2ccc(OC)cc2)C1=O (stereo not given) the Potency was inconclusive: 35.5 µM [inhibitor, partial curve, poor fit]. In the case of CC(=O)NC(c1ccccc1)c1nc(/C=C/c2ccccc2)cs1 (stereo not given), the Potency is reported as inconclusive: 100 µM [inhibitor, partial curve, poor fit]. In the case of Cc1cc(C)c2[nH]c(=S)cc(C)c2c1, the Potency is reported as “inactive and active: 6.31 µM”. O=C(c1cc2ccccc2cc1O)N1CCCC(C(F)(F)F)C1 (stereo not given) was tested, and the Potency was inconclusive: 112 µM [inhibitor, single point]. For O=C(Nc1ccccc1C(=O)OCc1cc(=O)n2ccsc2n1)c1cccc(F)c1, the Potency was “inactive”. In the case of Cc1ccc(Cl)cc1Nc1nc(N)c(C(=O)c2ccccc2F)s1, the Potency is reported as inconclusive: 28.2 µM [inhibitor, partial curve, poor fit]. For COc1ccc2c(COC(=O)c3ccc4ccccc4c3O)cc(=O)oc2c1, the Potency was inconclusive: 3.16 µM [inhibitor, full curve, poor fit]. Cc1ccc2nc(/C(C#N)=C/c3ccc(-c4ccc(F)cc4F)o3)[nH]c2c1 was tested, and the Potency was inconclusive: 15.8 µM [inhibitor, full curve, poor fit]. O=C(c1ccc2c(=O)n3c(nc2c1)CCCCC3)N1CCN(C(c2ccccc2)c2ccccc2)CC1 was tested, and the Potency was “inactive”. Cc1ccc(C(C)C)c(OCC(=O)Nc2ccc(N3CCOCC3)cc2N2CCOCC2)c1 was tested, and the Potency was inconclusive: 50.1 µM [inhibitor, partial curve, poor fit].
